The record followed here is publication doi:10.1101/396861.

These are yes or no findings as the source states them, for the method shown. Some binding calls cover weakened binding; strength is not graded here. Where a sequence is shown, tags or fusion partners need not be part of it.

Common to all, as to test: two-hybrid
For assay [1], the target named is T1, AtCPL1 (C-Terminal Phosphatase Like 1), yeast two-hybrid bait (Arabidopsis thaliana) (UniProt Q5YDB6).
T1 sequence: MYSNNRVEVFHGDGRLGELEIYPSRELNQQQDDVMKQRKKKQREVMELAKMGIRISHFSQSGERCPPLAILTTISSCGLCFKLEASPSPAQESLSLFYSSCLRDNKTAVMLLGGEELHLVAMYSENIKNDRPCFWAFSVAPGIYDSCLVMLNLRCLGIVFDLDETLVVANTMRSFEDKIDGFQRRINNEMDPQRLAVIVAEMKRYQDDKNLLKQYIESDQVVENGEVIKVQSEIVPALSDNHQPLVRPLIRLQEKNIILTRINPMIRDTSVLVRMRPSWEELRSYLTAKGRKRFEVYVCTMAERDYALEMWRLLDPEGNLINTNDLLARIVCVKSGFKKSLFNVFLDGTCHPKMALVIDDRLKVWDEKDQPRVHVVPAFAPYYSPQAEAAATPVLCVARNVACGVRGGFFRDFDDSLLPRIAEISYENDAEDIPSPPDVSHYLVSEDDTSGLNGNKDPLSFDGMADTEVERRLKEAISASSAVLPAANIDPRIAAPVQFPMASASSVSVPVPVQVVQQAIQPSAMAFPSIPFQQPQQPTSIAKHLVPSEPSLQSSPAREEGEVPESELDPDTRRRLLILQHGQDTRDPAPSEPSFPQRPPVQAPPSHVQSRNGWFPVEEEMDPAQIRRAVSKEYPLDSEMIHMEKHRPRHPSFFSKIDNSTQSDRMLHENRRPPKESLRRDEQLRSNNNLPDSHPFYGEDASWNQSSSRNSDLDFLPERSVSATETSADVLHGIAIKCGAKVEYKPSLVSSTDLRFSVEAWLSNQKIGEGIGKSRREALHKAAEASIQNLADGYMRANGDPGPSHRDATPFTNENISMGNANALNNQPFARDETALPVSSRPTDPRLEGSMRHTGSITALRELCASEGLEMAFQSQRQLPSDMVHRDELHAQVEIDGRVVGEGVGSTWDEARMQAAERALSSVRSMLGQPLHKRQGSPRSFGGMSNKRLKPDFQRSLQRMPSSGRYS

Assay [2] addresses T2, AtMPK3 (Arabidopsis thaliana mitogen-activated protein kinase-3), yeast two-hybrid fusion (Arabidopsis thaliana) (UniProt Q39023).
T2 sequence: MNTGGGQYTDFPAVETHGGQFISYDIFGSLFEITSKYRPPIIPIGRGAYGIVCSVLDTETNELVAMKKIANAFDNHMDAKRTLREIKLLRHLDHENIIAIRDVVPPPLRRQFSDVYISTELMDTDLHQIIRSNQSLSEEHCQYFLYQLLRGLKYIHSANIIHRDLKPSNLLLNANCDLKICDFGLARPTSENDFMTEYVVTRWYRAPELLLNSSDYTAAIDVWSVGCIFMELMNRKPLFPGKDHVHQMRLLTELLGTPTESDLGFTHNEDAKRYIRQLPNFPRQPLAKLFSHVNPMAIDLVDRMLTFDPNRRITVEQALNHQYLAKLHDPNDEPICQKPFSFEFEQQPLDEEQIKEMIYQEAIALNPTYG

In assay [3] the target is T3, AtSE (SERRATE), yeast two-hybrid bait (Arabidopsis thaliana) (UniProt Q9ZVD0).
T3 sequence: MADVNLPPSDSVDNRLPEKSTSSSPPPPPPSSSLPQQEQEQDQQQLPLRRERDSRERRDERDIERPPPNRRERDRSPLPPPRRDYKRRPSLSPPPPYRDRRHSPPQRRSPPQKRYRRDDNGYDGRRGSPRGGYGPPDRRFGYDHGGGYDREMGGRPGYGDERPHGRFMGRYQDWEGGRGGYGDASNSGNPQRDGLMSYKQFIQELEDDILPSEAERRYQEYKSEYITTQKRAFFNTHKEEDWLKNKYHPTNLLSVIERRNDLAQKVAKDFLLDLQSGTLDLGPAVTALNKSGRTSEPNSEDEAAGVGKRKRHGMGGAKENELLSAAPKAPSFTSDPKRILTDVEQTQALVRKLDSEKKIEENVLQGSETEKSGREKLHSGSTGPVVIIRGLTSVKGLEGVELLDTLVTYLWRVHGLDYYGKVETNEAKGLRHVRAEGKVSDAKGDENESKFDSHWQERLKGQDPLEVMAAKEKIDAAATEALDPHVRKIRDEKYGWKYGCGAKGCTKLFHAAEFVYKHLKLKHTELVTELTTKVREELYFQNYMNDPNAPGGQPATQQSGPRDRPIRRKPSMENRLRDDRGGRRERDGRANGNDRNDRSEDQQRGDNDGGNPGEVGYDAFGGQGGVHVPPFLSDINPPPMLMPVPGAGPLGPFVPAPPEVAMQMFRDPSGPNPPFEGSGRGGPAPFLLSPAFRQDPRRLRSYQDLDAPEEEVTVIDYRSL

B1: AtHYL1FL (full-length Arabidopsis thaliana HYPONASTIC LEAVES 1 / Double-stranded RNA Binding protein 1), yeast two-hybrid AD fusion (protein, UniProt O04492 1-419)
chain: MTSTDVSSGVSNCYVFKSRLQEYAQKYKLPTPVYEIVKEGPSHKSLFQSTVILDGVRYNSLPGFFNRKAAEQSAAEVALRELAKSSELSQCVSQPVHETGLCKNLLQEYAQKMNYAIPLYQCQKVETLGRVTQFTCTVEIGGIKYTGAATRTKKDAEISAGRTALLAIQSDTKNNLANYNTQLTVLPCEKKTIQAAIPLKETVKTLKARKAQFKKKAQKGKRTVAKNPEDIIIPPQPTDHCQNDQSEKIETTPNLEPSSCMNGLKEAAFGSVETEKIETTPNLEPPSCMNGLKEAAFGSVETEKIETTPNLEPPSCMNGLKEAAFGSVETEKIETTPNLEPSSCMNGLKEAAFGSVETEKIETTPNLEPPSCMNGLKEAAFGSVETEKIETTPNLESSSCMSGLKEAAFGSVETEASHA
Consider B1, for which the binding result in assay [1] and in assay [2] was “binds” each time.

B2: AtHYL1N (N-terminal fragment of AtHYL1, 1-170 AA), yeast two-hybrid AD fusion (domain or fragment, UniProt O04492 1-170)
chain: MTSTDVSSGVSNCYVFKSRLQEYAQKYKLPTPVYEIVKEGPSHKSLFQSTVILDGVRYNSLPGFFNRKAAEQSAAEVALRELAKSSELSQCVSQPVHETGLCKNLLQEYAQKMNYAIPLYQCQKVETLGRVTQFTCTVEIGGIKYTGAATRTKKDAEISAGRTALLAIQS
For B2, the binding entry in assay [1], in assay [2] and in assay [3] was “binds” in each case.

B3: AtHYL1C (C-terminal fragment of AtHYL1, 171-419 AA), yeast two-hybrid AD fusion (domain or fragment, UniProt O04492 171-419)
chain: DTKNNLANYNTQLTVLPCEKKTIQAAIPLKETVKTLKARKAQFKKKAQKGKRTVAKNPEDIIIPPQPTDHCQNDQSEKIETTPNLEPSSCMNGLKEAAFGSVETEKIETTPNLEPPSCMNGLKEAAFGSVETEKIETTPNLEPPSCMNGLKEAAFGSVETEKIETTPNLEPSSCMNGLKEAAFGSVETEKIETTPNLEPPSCMNGLKEAAFGSVETEKIETTPNLESSSCMSGLKEAAFGSVETEASHA
Regarding B3, the binding entry in assay [1] and in assay [2] was “binds” in each case.
